Measurements: publication PMC5841321

T1: E3 ubiquitin-protein ligase Midline-1 (UniProt O15344)
T1 sequence: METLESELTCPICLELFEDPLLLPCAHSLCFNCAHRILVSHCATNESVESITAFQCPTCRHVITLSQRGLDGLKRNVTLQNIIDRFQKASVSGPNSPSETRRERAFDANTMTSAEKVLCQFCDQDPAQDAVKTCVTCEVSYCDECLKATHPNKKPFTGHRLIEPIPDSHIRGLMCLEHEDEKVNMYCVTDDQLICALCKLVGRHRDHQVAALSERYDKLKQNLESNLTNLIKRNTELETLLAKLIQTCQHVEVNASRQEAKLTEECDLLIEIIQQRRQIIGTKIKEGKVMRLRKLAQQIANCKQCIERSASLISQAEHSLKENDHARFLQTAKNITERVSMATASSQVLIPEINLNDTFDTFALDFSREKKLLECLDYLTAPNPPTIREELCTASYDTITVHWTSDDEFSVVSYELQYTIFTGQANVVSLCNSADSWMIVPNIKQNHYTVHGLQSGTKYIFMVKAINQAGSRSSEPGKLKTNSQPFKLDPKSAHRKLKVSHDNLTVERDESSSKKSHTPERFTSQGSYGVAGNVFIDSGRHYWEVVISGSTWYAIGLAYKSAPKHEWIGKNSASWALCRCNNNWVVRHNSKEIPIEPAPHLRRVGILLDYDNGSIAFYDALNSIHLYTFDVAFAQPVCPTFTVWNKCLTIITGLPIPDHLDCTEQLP

B1: Testis-expressed sequence 10 protein (protein, UniProt Q9NXF1 1-929)
chain: MTKKRKRQHDFQKVKLKVGKKKPKLQNATPTNFKTKTIHLPEQLKEDGTLPTNNRKLNIKDLLSQMHHYNAGVKQSALLGLKDLLSQYPFIIDAHLSNILSEVTAVFTDKDANVRLAAVQLLQFLAPKIRAEQISPFFPLVSAHLSSAMTHITEGIQEDSLKVLDILLEQYPALITGRSSILLKNFVELISHQQLSKGLINRDRSQSWILSVNPNRRLTSQQWRLKVLVRLSKFLQALADGSSRLRESEGLQEQKENPHATSNSIFINWKEHANDQQHIQVYENGGSQPNVSSQFRLRYLVGGLSGVDEGLSSTENLKGFIEIIIPLLIECWVEAVPPQLATPVGNGIEREPLQVMQQVLNIISLLWKLSKQQDETHKLESWLRKNYLIDFKHHFMSRFPYVLKEITKHKRKEPNKSIKHCTVLSNNIDHLLLNLTLSDIMVSLANASTLQKDCSWIEMIRKFVTETLEDGSRLNSKQLNRLLGVSWRLMQIQPNREDTETLIKAVYTLYQQRGLILPVRTLLLKFFSKIYQTEELRSCRFRYRSKVLSRWLAGLPLQLAHLGSRNPELSTQLIDIIHTAAARANKELLKSLQATALRIYDPQEGAVVVLPADSQQRLVQLVYFLPSLPADLLSRLSRCCIMGRLSSSLAAMLIGILHMRSSFSGWKYSAKDWLMSDVDYFSFLFSTLTGFSKEELTWLQSLRGVPHVIQTQLSPVLLYLTDLDQFLHHWDVTEAVFHSLLVIPARSQNFDILQSAISKHLVGLTVIPDSTAGCVFGVICKLLDHTCVVSETLLPFLASCCYSLLYFLLTIEKGEAEHLRKRDKLWGVCVSILALLPRVLRLMLQSLRVNRVGPEELPVVGQLLRLLLQHAPLRTHMLTNAILVQQIIKNITTLKSGSVQEQWLTDLHYCFNVYITGHPQGPSALATVY
B2: Transmembrane protein 33 (protein, UniProt P57088 1-247)
chain: MADTTPNGPQGAGAVQFMMTNKLDTAMWLSRLFTVYCSALFVLPLLGLHEAASFYQRALLANALTSALRLHQRLPHFQLSRAFLAQALLEDSCHYLLYSLIFVNSYPVTMSIFPVLLFSLLHAATYTKKVLDARGSNSLPLLRSVLDKLSANQQNILKFIACNEIFLMPATVFMLFSGQGSLLQPFIYYRFLTLRYSSRRNPYCRTLFNELRIVVEHIIMKPACPLFVRRLCLQSIAFISRLAPTVP
B3: Tropomodulin-3 (protein, UniProt Q9NYL9 1-352)
chain: MALPFRKDLEKYKDLDEDELLGNLSETELKQLETVLDDLDPENALLPAGFRQKNQTSKSTTGPFDREHLLSYLEKEALEHKDREDYVPYTGEKKGKIFIPKQKPVQTFTEEKVSLDPELEEALTSASDTELCDLAAILGMHNLITNTKFCNIMGSSNGVDQEHFSNVVKGEKILPVFDEPPNPTNVEESLKRTKENDAHLVEVNLNNIKNIPIPTLKDFAKALETNTHVKCFSLAATRSNDPVATAFAEMLKVNKTLKSLNVESNFITGVGILALIDALRDNETLAELKIDNQRQQLGTAVELEMAKMLEENTNILKFGYQFTQQGPRTRAANAITKNNDLVRKRRVEGDHQ
B4: TRMT1-like protein (protein, UniProt Q7Z2T5 1-733)
chain: MENMAEEELLPLEKEEVEVAQVQVPTPARDSAGVPAPAPDSALDSAPTPASAPAPAPALAQAPALSPSLASAPEEAKSKRHISIQRQLADLENLAFVTDGNFDSASSLNSDNLDAGNRQACPLCPKEKFRACNSHKLRRHLQNLHWKVSVEFEGYRMCICHLPCRPVKPNIIGEQITSKMGAHYHCIICSATITRRTDMLGHVRRHMNKGETKSSYIAASTAKPPKEILKEADTDVQVCPNYSIPQKTDSYFNPKMKLNRQLIFCTLAALAEERKPLECLDAFGATGIMGLQWAKHLGNAVKVTINDLNENSVTLIQENCHLNKLKVVVDSKEKEKSDDILEEGEKNLGNIKVTKMDANVLMHLRSFDFIHLDPFGTSVNYLDSAFRNIRNLGIVSVTSTDISSLYAKAQHVARRHYGCNIVRTEYYKELAARIVVAAVARAAARCNKGIEVLFAVALEHFVLVVVRVLRGPTSADETAKKIQYLIHCQWCEERIFQKDGNMVEENPYRQLPCNCHGSMPGKTAIELGPLWSSSLFNTGFLKRMLFESLHHGLDDIQTLIKTLIFESECTPQSQFSIHASSNVNKQEENGVFIKTTDDTTTDNYIAQGKRKSNEMITNLGKKQKTDVSTEHPPFYYNIHRHSIKGMNMPKLKKFLCYLSQAGFRVSRTHFDPMGVRTDAPLMQFKSILLKYSTPTYTGGQSESHVQSASEDTVTERVEMSVNDKAEASGCRRW
B5: Splicing factor U2AF 35 kDa subunit (protein, UniProt Q01081 1-240)
chain: MAEYLASIFGTEKDKVNCSFYFKIGACRHGDRCSRLHNKPTFSQTIALLNIYRNPQNSSQSADGLRCAVSDVEMQEHYDEFFEEVFTEMEEKYGEVEEMNVCDNLGDHLVGNVYVKFRREEDAEKAVIDLNNRWFNGQPIHAELSPVTDFREACCRQYEMGECTRGGFCNFMHLKPISRELRRELYGRRRKKHRSRSRSRERRSRSRDRGRGGGGGGGGGGGGRERDRRRSRDRERSGRF
B6: U4/U6.U5 tri-snRNP-associated protein 2 (protein, UniProt Q53GS9 1-565)
chain: MSGRSKRESRGSTRGKRESESRGSSGRVKRERDREREPEAASSRGSPVRVKREFEPASAREAPASVVPFVRVKREREVDEDSEPEREVRAKNGRVDSEDRRSRHCPYLDTINRSVLDFDFEKLCSISLSHINAYACLVCGKYFQGRGLKSHAYIHSVQFSHHVFLNLHTLKFYCLPDNYEIIDSSLEDITYVLKPTFTKQQIANLDKQAKLSRAYDGTTYLPGIVGLNNIKANDYANAVLQALSNVPPLRNYFLEEDNYKNIKRPPGDIMFLLVQRFGELMRKLWNPRNFKAHVSPHEMLQAVVLCSKKTFQITKQGDGVDFLSWFLNALHSALGGTKKKKKTIVTDVFQGSMRIFTKKLPHPDLPAEEKEQLLHNDEYQETMVESTFMYLTLDLPTAPLYKDEKEQLIIPQVPLFNILAKFNGITEKEYKTYKENFLKRFQLTKLPPYLIFCIKRFTKNNFFVEKNPTIVNFPITNVDLREYLSEEVQAVHKNTTYDLIANIVHDGKPSEGSYRIHVLHHGTGKWYELQDLQVTDILPQMITLSEAYIQIWKRRDNDETNQQGA
B7: Exportin-T (protein, UniProt O43592 1-962)
chain: MDEQALLGLNPNADSDFRQRALAYFEQLKISPDAWQVCAEALAQRTYSDDHVKFFCFQVLEHQVKYKYSELTTVQQQLIRETLISWLQAQMLNPQPEKTFIRNKAAQVFALLFVTEYLTKWPKFFFDILSVVDLNPRGVDLYLRILMAIDSELVDRDVVHTSEEARRNTLIKDTMREQCIPNLVESWYQILQNYQFTNSEVTCQCLEVVGAYVSWIDLSLIANDRFINMLLGHMSIEVLREEACDCLFEVVNKGMDPVDKMKLVESLCQVLQSAGFFSIDQEEDVDFLARFSKLVNGMGQSLIVSWSKLIKNGDIKNAQEALQAIETKVALMLQLLIHEDDDISSNIIGFCYDYLHILKQLTVLSDQQKANVEAIMLAVMKKLTYDEEYNFENEGEDEAMFVEYRKQLKLLLDRLAQVSPELLLASVRRVFSSTLQNWQTTRFMEVEVAIRLLYMLAEALPVSHGAHFSGDVSKASALQDMMRTLVTSGVSSYQHTSVTLEFFETVVRYEKFFTVEPQHIPCVLMAFLDHRGLRHSSAKVRSRTAYLFSRFVKSLNKQMNPFIEDILNRIQDLLELSPPENGHQSLLSSDDQLFIYETAGVLIVNSEYPAERKQALMRNLLTPLMEKFKILLEKLMLAQDEERQASLADCLNHAVGFASRTSKAFSNKQTVKQCGCSEVYLDCLQTFLPALSCPLQKDILRSGVRTFLHRMIICLEEEVLPFIPSASEHMLKDCEAKDLQEFIPLINQITAKFKIQVSPFLQQMFMPLLHAIFEVLLRPAEENDQSAALEKQMLRRSYFAFLQTVTGSGMSEVIANQGAENVERVLVTVIQGAVEYPDPIAQKTCFIILSKLVELWGGKDGPVGFADFVYKHIVPACFLAPLKQTFDLADAQTVLALSECAVTLKTIHLKRGPECVQYLQQEYLPSLQVAPEIIQEFCQALQQPDAKVFKNYLKVFFQRAKP
B8: Zinc finger CCCH domain-containing protein 18 (protein, UniProt Q86VM9 1-953)
chain: MDVAESPERDPHSPEDEEQPQGLSDDDILRDSGSDQDLDGAGVRASDLEDEESAARGPSQEEEDNHSDEEDRASEPKSQDQDSEVNELSRGPTSSPCEEEGDEGEEDRTSDLRDEASSVTRELDEHELDYDEEVPEEPAPAVQEDEAEKAGAEDDEEKGEGTPREEGKAGVQSVGEKESLEAAKEKKKEDDDGEIDDGEIDDDDLEEGEVKDPSDRKVRPRPTCRFFMKGNCTWGMNCRFIHPGVNDKGNYSLITKADPFPPNGAPPLGPHPLMPANPWGGPVVDEILPPPPPEPPTESAWERGLRHAKEVLKKATIRKEQEPDFEEKRFTVTIGEDEREFDKENEVFRDWNSRIPRDVRDTVLEPYADPYYDYEIERFWRGGQYENFRVQYTETEPYHNYRERERERERENRQRERERERERDRERERRQRERERERERERDKERQRRKEEWERERAKRDEKDRQHRDRDREKEREKEKGKPKPRSPQPPSRQAEPPKKEAATTGPQVKRADEWKDPWRRSKSPKKKLGVSVSPSRARRRRKTSASSASASNSSRSSSRSSSYSGSGSSRSRSRSSSYSSYSSRSSRHSSFSGSRSRSRSFSSSPSPSPTPSPHRPSIRTKGEPAPPPGKAGEKSVKKPAPPPAPPQATKTTAPVPEPTKPGDPREARRKERPARTPPRRRTLSGSGSGSGSSYSGSSSRSRSLSVSSVSSVSSATSSSSSAHSVDSEDMYADLASPVSSASSRSPAPAQTRKEKGKSKKEDGVKEEKRKRDSSTQPPKSAKPPAGGKSSQQPSTPQQAPPGQPQQGTFVAHKEIKLTLLNKAADKGSRKRYEPSDKDRQSPPPAKRPNTSPDRGSRDRKSGGRLGSPKPERQRGQNSKAPAAPADRKRQLSPQSKSSSKVTSVPGKASDPGAASTKSGKASTLSRREELLKQLKAVEDAIARKRAKIPGKA

What follows are binders tested against T1, E3 ubiquitin-protein ligase Midline-1 (assay: affinity purification with mass spectrometry; MID1-FLAG expressed in HEK293T, lysate in TKM buffer (20 mM Tris pH 7.4, 100 mM KCl, 5 mM MgCl2, 0.5% NP40, 1 mM DTT), anti-FLAG M1 agarose overnight at 4 °C, 6 washes; untransfected cells as control; Q-Exactive, MaxQuant, 1% FDR).

| Binder | binding |
| --- | --- |
| B1 | binds |
| B2 | binds |
| B3 | binds |
| B4 | binds |
| B5 | binds |
| B6 | binds |
| B7 | binds |
| B8 | binds |

No constants are given. Whether binding was seen depends on the method and setting. Binding seen in cells or lysates may run through a third protein. A yes stands for co-enrichment or nearness to the bait. Other partners may have been found.
